Results as given in patent EP3625243B1 (Universität Duisburg-Essen, priority 2017, dated 2018).
HELM strings list residues between dots; [ac] is acetyl, [am] amide, other brackets name non-standard units.

Test: general procedure: Fmoc solid-phase peptide synthesis; chlorotrityl resin (loaded with Fmoc-Hnv-OAll, 0.2 mmol/g)
Conditions: whole synthesis; for isolated yield: scale of the general procedure 0.2 mmol (1000 mg resin)

Row | Substance | isolated mass [mg] | isolated yield [%]
1 | PEPTIDE1{[Cbz].A.A.T.[Nva].[Ahp-Leu].[NMePhe].V}$PEPTIDE1,PEPTIDE1,4:R3-8:R2$$$V2.0 | 1.0 | 1.0
2 | PEPTIDE1{[Cbz].A.A.[3OHLeu].V.[Ahp-Leu].[NMePhe].V}$PEPTIDE1,PEPTIDE1,4:R3-8:R2$$$V2.0 | 12.5 | 6.3
3 | PEPTIDE1{[Cbz].A.A.T.A.[Ahp-Leu].[NMePhe].V}$PEPTIDE1,PEPTIDE1,4:R3-8:R2$$$V2.0 | 1.2 | 0.6
4 | PEPTIDE1{[Cbz].A.A.T.[Ile-b-open].[Ahp-Leu].[NMePhe].V}$PEPTIDE1,PEPTIDE1,4:R3-8:R2$$$V2.0 | 2.3 | 1.2
5 | PEPTIDE1{[Cbz].A.A.T.[Pra].[Ahp-Leu].[NMePhe].V}$PEPTIDE1,PEPTIDE1,4:R3-8:R2$$$V2.0 | 2.4 | 2.5
6 | PEPTIDE1{[Cbz].A.A.T.V.[Ahp-Leu].[NMeAla].V}$PEPTIDE1,PEPTIDE1,4:R3-8:R2$$$V2.0 | 1.9 | 1.1
7 | PEPTIDE1{[Cbz].A.A.T.V.[Ahp-Leu].[NMePhe].V}$PEPTIDE1,PEPTIDE1,4:R3-8:R2$$$V2.0 | 9.9 | 5.2
8 | PEPTIDE1{[Cbz].A.A.T.[AllylGly].[Ahp-Leu].[NMePhe].V}$PEPTIDE1,PEPTIDE1,4:R3-8:R2$$$V2.0 | 1.1 | 1.1
9 | PEPTIDE1{[Cbz].A.A.T.L.[Ahp-Leu].[NMePhe].V}$PEPTIDE1,PEPTIDE1,4:R3-8:R2$$$V2.0 | 11.8 | 6.1
10 | PEPTIDE1{[Cbz].A.A.T.[Abu].[Ahp-Leu].[NMePhe].V}$PEPTIDE1,PEPTIDE1,4:R3-8:R2$$$V2.0 | 1.2 | 1.3
